PubChem BioAssay AID743121 – NCATS – 2013
Assay: 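Partners whose loss is lethal together with topoisomerase I blockade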 (primary screen). Cell system: MDA-MB-231 cells, a human breast cancer line. Knock-down reagent: single siRNA against human genes, 20 nM siRNA (0.8 pmol per well). Timing: 120 h (drug added 48 h after transfection, read 72 h later). Conditions: camptothecin 20 nM (about EC30) for 72 h; vehicle 0.1% DMSO in parallel plates. Measurement: 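Cell viability by ATP luminescence (CellTiter-Glo) as % of non-targeting siRNA wells, and the log2 ratio of viability without drug over viability with camptothecin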. Direction: log2 vehicle/camptothecin viability: higher = stronger sensitisation to camptothecin; viability with camptothecin: higher = more viable cells. Units: viability with camptothecin in % of control. Active means: 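Each gene scored by redundant siRNA activity (RSA) over its individual siRNA ratios; a gene is called active at p < 0.001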.
Here is a random part of about 26,000 reagents. Over the whole deposit, 167 (0.63%) got an active call. 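Calls are per gene from RSA p-values that are not deposited; an individual active-marked siRNA can sensitise only weakly.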 The numbers tell different reagents against one gene apart. Further read-outs or replicates are left out here.

LRP3 #1
- log2 vehicle/camptothecin viability: -0.439
- viability with camptothecin: 38.9
- activity call: inactive

LRP3 #2
- log2 vehicle/camptothecin viability: 0.00899
- viability with camptothecin: 108
- activity call: inactive

LRP3 #3
- log2 vehicle/camptothecin viability: -0.132
- viability with camptothecin: 46.6
- activity call: inactive

LRP3 #4
- log2 vehicle/camptothecin viability: 0.336
- viability with camptothecin: 49.7
- activity call: inactive

SLC25A13 #1
- log2 vehicle/camptothecin viability: 0.24
- viability with camptothecin: 84.4
- activity call: inactive

SLC25A13 #2
- log2 vehicle/camptothecin viability: -0.193
- viability with camptothecin: 65.7
- activity call: inactive

SLC25A13 #3
- log2 vehicle/camptothecin viability: -0.106
- viability with camptothecin: 71.2
- activity call: inactive

RNF150 #1
- log2 vehicle/camptothecin viability: 0.0191
- viability with camptothecin: 65.6
- activity call: inactive

RNF150 #2
- log2 vehicle/camptothecin viability: -0.0436
- viability with camptothecin: 34.1
- activity call: inactive

RNF150 #3
- log2 vehicle/camptothecin viability: -0.251
- viability with camptothecin: 103
- activity call: inactive

RNF150 #4
- log2 vehicle/camptothecin viability: -0.272
- viability with camptothecin: 88.7
- activity call: inactive

VNN2 #1
- log2 vehicle/camptothecin viability: 0.0643
- viability with camptothecin: 98.5
- activity call: inactive

VNN2 #2
- log2 vehicle/camptothecin viability: 0.102
- viability with camptothecin: 74.9
- activity call: inactive

VNN2 #3
- log2 vehicle/camptothecin viability: -0.264
- viability with camptothecin: 105
- activity call: inactive

VNN2 #4
- log2 vehicle/camptothecin viability: -0.0164
- viability with camptothecin: 71.3
- activity call: inactive

TBR1 #1
- log2 vehicle/camptothecin viability: 0.194
- viability with camptothecin: 28.2
- activity call: inactive

TBR1 #2
- log2 vehicle/camptothecin viability: -0.251
- viability with camptothecin: 35.2
- activity call: inactive

TBR1 #3
- log2 vehicle/camptothecin viability: -0.12
- viability with camptothecin: 75.1
- activity call: inactive

TBR1 #4
- log2 vehicle/camptothecin viability: -0.321
- viability with camptothecin: 85.6
- activity call: inactive

ITGB3 #1
- log2 vehicle/camptothecin viability: 0.135
- viability with camptothecin: 88.3
- activity call: inactive

ITGB3 #2
- log2 vehicle/camptothecin viability: -0.548
- viability with camptothecin: 102
- activity call: inactive

ITGB3 #3
- log2 vehicle/camptothecin viability: 0.015
- viability with camptothecin: 63.6
- activity call: inactive

ITGB3 #4
- log2 vehicle/camptothecin viability: -0.542
- viability with camptothecin: 56.4
- activity call: inactive

EIF2AK4 #1
- log2 vehicle/camptothecin viability: -0.0653
- viability with camptothecin: 108
- activity call: inactive

EIF2AK4 #2
- log2 vehicle/camptothecin viability: -0.181
- viability with camptothecin: 104
- activity call: inactive

EIF2AK4 #3
- log2 vehicle/camptothecin viability: 0.496
- viability with camptothecin: 54.6
- activity call: inactive

EIF2AK4 #4
- log2 vehicle/camptothecin viability: 0.115
- viability with camptothecin: 75.5
- activity call: inactive

SLC10A5 #1
- log2 vehicle/camptothecin viability: -0.477
- viability with camptothecin: 95.6
- activity call: inactive

SLC10A5 #2
- log2 vehicle/camptothecin viability: -0.275
- viability with camptothecin: 107
- activity call: inactive

SLC10A5 #3
- log2 vehicle/camptothecin viability: 0.0618
- viability with camptothecin: 97.2
- activity call: inactive

SLC10A5 #4
- log2 vehicle/camptothecin viability: 0.252
- viability with camptothecin: 45.1
- activity call: inactive

MGAT1 #1
- log2 vehicle/camptothecin viability: -0.268
- viability with camptothecin: 25.2
- activity call: inactive

MGAT1 #2
- log2 vehicle/camptothecin viability: -0.41
- viability with camptothecin: 68
- activity call: inactive

MGAT1 #3
- log2 vehicle/camptothecin viability: -0.204
- viability with camptothecin: 109
- activity call: inactive

CRIM1 #1
- log2 vehicle/camptothecin viability: -0.279
- viability with camptothecin: 57.1
- activity call: inactive

CRIM1 #2
- log2 vehicle/camptothecin viability: -0.304
- viability with camptothecin: 68.2
- activity call: inactive

CRIM1 #3
- log2 vehicle/camptothecin viability: -0.462
- viability with camptothecin: 35.2
- activity call: inactive

CRIM1 #4
- log2 vehicle/camptothecin viability: -0.0956
- viability with camptothecin: 97.7
- activity call: inactive

TK1 #1
- log2 vehicle/camptothecin viability: -0.154
- viability with camptothecin: 17.4
- activity call: inactive

TK1 #2
- log2 vehicle/camptothecin viability: -0.01
- viability with camptothecin: 39
- activity call: inactive

TK1 #3
- log2 vehicle/camptothecin viability: 0.0885
- viability with camptothecin: 84.4
- activity call: inactive

TK1 #4
- log2 vehicle/camptothecin viability: -0.176
- viability with camptothecin: 72.3
- activity call: inactive

TUBG1 #1
- log2 vehicle/camptothecin viability: -0.746
- viability with camptothecin: 72.6
- activity call: inactive

TUBG1 #2
- log2 vehicle/camptothecin viability: -0.433
- viability with camptothecin: 82.5
- activity call: inactive

TUBG1 #3
- log2 vehicle/camptothecin viability: -0.313
- viability with camptothecin: 76
- activity call: inactive

TUBG1 #4
- log2 vehicle/camptothecin viability: -0.0854
- viability with camptothecin: 77.7
- activity call: inactive

Reprinted from the entries so far, 7 entries:
RNF150 #4
- log2 vehicle/camptothecin viability: -0.272
- viability with camptothecin: 88.7
- activity call: inactive

VNN2 #1
- log2 vehicle/camptothecin viability: 0.0643
- viability with camptothecin: 98.5
- activity call: inactive

VNN2 #2
- log2 vehicle/camptothecin viability: 0.102
- viability with camptothecin: 74.9
- activity call: inactive

VNN2 #3
- log2 vehicle/camptothecin viability: -0.264
- viability with camptothecin: 105
- activity call: inactive

VNN2 #4
- log2 vehicle/camptothecin viability: -0.0164
- viability with camptothecin: 71.3
- activity call: inactive

TBR1 #1
- log2 vehicle/camptothecin viability: 0.194
- viability with camptothecin: 28.2
- activity call: inactive

TBR1 #2
- log2 vehicle/camptothecin viability: -0.251
- viability with camptothecin: 35.2
- activity call: inactive
